Test results: article PMC7862700
The list shows a part of the results, in another mix than the full data. For some assays here: At the low end of the ranking the order means little. Some of the results follow. For some assays here: The exact form of the protein is not confirmed.

By UniProt entry, the sequences of proteins in these tests, tags left out. Where a name states a change or a piece, a line headed by the entry shows the natural chain unless it says otherwise.
UniProt Q00613: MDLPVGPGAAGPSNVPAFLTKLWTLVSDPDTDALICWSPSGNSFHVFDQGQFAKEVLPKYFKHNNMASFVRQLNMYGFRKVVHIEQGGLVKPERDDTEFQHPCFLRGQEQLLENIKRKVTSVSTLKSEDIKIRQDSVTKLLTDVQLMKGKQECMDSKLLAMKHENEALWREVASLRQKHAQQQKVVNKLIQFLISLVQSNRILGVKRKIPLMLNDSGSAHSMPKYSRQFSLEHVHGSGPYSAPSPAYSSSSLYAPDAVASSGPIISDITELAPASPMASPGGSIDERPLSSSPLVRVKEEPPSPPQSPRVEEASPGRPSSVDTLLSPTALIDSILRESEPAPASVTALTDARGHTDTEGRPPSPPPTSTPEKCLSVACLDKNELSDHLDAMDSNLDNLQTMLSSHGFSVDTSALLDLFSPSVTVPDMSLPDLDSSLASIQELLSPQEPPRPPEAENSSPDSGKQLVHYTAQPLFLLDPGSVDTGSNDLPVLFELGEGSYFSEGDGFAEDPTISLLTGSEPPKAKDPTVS

What follows are sequences tested against HSF1 (UniProt Q00613) (assay: DAPPL (digital affinity profiling via proximity ligation, sequencing)). Conditions: 10 mM Tris-HCl pH 7.5, 50 mM NaCl, 1 mM DTT, 4% glycerol, room temperature, 30 min; GST-TFs on glutathione beads, 16-mer random dsDNA library, 0.1% …; high values mean tight binding; double strand, one strand shown; scale: fold enrichment (6-mer frequency, TF over GST control).
GCTAGT gave a binding signal of 1.12. CCGTCA showed a binding signal of 0.968. GCCATC gave a binding signal of 0.728. CGCCGC gave a binding signal of 0.888. ATATAG showed a binding signal of 1.19. ACATGT was tested, and the binding signal was 0.912. Sequence TCGTCG has a binding signal of 0.874. GTCACG was tested, and the binding signal was 0.819. For CTCGAA, the binding signal was 4.2. CAAGTA was tested, and the binding signal was 1.02. In the case of ATCCCA, the binding signal is reported as 1.34. For GTAGCG, the binding signal was 0.743. With CTTAAT the binding signal was 2.31. For TTGTCA, the binding signal was 0.94. With AGCACG the binding signal was 0.786. CCAAAT was tested, and the binding signal was 1.02. TCGAAC showed a binding signal of 2. With CGCGGC the binding signal was 0.91. With TGGACT the binding signal was 1.18. Sequence CGTTGT has a binding signal of 0.763. With CACTGT the binding signal was 0.883. In the case of AAGATG, the binding signal is reported as 1.19. In the case of CACGGC, the binding signal is reported as 0.761. CATACC gave a binding signal of 0.837. Work on CAACTG yielded a binding signal of 0.962. Work on CAAATG yielded a binding signal of 0.998. GTGCAC showed a binding signal of 0.637. GGTAAT gave a binding signal of 1.27. Work on GGCCTC yielded a binding signal of 0.873. For GTACAA, the binding signal was 0.936. For TACCTT, the binding signal was 1.3. In the case of AGTGTC, the binding signal is reported as 0.75. In the case of CGCCAT, the binding signal is reported as 0.76. For CGCACA, the binding signal was 0.835. TGATGT was tested, and the binding signal was 0.987. Sequence AGCGCC has a binding signal of 0.908. Sequence AGTTAT has a binding signal of 0.832. In the case of ACCCGA, the binding signal is reported as 1.21. TCGCGT gave a binding signal of 1.04. TTCTTA gave a binding signal of 1.85.

These sequences were tested against T1, ELF2 (UniProt Q15723) in the same assay as above. Conditions: 10 mM Tris-HCl pH 7.5, 50 mM NaCl, 1 mM DTT, 4% glycerol, room temperature, 30 min; GST-TFs on glutathione beads, 16-mer random dsDNA library, 0.1% …; high values mean tight binding; double strand, one strand shown; scale: fold enrichment (6-mer frequency, TF over GST control).
T1 sequence: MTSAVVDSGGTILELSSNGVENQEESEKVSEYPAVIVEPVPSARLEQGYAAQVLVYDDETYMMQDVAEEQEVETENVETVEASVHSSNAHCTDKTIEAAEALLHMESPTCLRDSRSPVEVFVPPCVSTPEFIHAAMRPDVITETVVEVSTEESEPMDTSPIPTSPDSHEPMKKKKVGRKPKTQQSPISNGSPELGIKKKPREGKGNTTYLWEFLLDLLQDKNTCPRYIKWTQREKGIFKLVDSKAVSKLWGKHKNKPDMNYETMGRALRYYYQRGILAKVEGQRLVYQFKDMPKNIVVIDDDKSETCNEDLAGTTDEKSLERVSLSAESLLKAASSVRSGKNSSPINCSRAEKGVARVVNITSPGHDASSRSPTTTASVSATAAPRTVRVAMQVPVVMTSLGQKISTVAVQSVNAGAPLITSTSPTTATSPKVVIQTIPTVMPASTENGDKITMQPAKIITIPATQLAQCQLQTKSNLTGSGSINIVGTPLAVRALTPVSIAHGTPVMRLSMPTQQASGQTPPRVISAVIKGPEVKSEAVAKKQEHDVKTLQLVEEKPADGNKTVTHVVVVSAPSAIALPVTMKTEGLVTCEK
GCTAGT showed a binding signal of 0.983. Sequence CCGTCA has a binding signal of 1.18. For GCCATC, the binding signal was 0.877. Sequence CGCCGC has a binding signal of 1.14. With ATATAG the binding signal was 1.17. ACATGT gave a binding signal of 1.11. Work on TCGTCG yielded a binding signal of 0.868. Sequence GTCACG has a binding signal of 0.986. Work on CTCGAA yielded a binding signal of 1.13. CAAGTA gave a binding signal of 1.09. For ATCCCA, the binding signal was 1.09. In the case of GTAGCG, the binding signal is reported as 0.898. Sequence CTTAAT has a binding signal of 1.26. Sequence TTGTCA has a binding signal of 1.07. AGCACG was tested, and the binding signal was 0.908. With CCAAAT the binding signal was 1.02. TCGAAC showed a binding signal of 0.995. Work on CGCGGC yielded a binding signal of 0.948. With TGGACT the binding signal was 1.21. CGTTGT was tested, and the binding signal was 0.937. CACTGT was tested, and the binding signal was 1.05. In the case of AAGATG, the binding signal is reported as 1.09. With CACGGC the binding signal was 0.913. CATACC gave a binding signal of 1.05. With CAACTG the binding signal was 1.09. CAAATG gave a binding signal of 1.13. Sequence GTGCAC has a binding signal of 0.955. Work on GGTAAT yielded a binding signal of 1.09. For GGCCTC, the binding signal was 1.05. With GTACAA the binding signal was 1.06. TACCTT showed a binding signal of 1.38. AGTGTC gave a binding signal of 1.02. For CGCCAT, the binding signal was 0.984. With CGCACA the binding signal was 0.98. In the case of TGATGT, the binding signal is reported as 1.15. With AGCGCC the binding signal was 1.02. Work on AGTTAT yielded a binding signal of 0.9. ACCCGA was tested, and the binding signal was 1. With TCGCGT the binding signal was 0.904. TTCTTA showed a binding signal of 1.36.
